Measurements taken from patent US20200224181.
Changes are numbered by the printed parent chain. Tags and fusion partners may be left off the protein sequences shown.

Legend:
Assay in all cases: activity assay
[1] = target: T1, Pol theta CS13 E2335G (Homo sapiens) (UniProt O75417); conditions: primer extension with dNTPs, NTPs and modified NTPs, template-free, 5 mM Mn2+, 42 C; purified recombinant protein; protein details: pSUMO326-derived; label: 5'-32P or ATTO488; single-stranded DNA
T1 sequence: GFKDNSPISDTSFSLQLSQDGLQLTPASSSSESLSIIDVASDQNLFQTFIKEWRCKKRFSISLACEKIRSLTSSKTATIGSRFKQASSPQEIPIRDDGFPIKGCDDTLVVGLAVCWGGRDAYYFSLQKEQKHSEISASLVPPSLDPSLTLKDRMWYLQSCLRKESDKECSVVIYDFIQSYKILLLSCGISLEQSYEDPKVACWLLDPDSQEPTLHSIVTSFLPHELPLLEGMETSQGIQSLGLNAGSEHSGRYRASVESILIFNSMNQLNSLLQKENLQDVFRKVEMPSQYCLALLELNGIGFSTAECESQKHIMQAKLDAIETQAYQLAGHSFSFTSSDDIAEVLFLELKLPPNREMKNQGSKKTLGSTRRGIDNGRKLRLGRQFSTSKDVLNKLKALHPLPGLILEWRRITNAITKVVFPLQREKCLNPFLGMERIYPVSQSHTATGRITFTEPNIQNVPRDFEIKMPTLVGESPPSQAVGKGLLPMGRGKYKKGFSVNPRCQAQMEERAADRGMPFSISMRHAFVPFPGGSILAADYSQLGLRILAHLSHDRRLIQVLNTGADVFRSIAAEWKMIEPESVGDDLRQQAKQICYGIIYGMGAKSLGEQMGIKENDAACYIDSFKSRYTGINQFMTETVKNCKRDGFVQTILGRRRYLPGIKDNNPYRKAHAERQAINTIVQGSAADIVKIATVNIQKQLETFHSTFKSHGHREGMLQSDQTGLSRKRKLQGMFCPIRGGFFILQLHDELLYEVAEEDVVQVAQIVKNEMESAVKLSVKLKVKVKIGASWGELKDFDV

[2] = target: T2, Pol theta NM11 Y2387F (Homo sapiens) (UniProt O75417); conditions: primer extension with dNTPs, template-free, 5 mM Mn2+, 42 C; purified recombinant protein; protein details: pSUMO326-derived; label: 5'-32P or ATTO488; single-stranded DNA
T2 sequence: T1 sequence with G544E, Y596F

[3] = target: T3, DNA polymerase theta WT polymerase domain (Homo sapiens) (UniProt O75417); conditions: primer extension with dNTPs, template-free, 5 mM Mn2+, 42 C; polymers up to 150-200 nt; purified recombinant protein; label: 5'-32P or ATTO488; single-stranded DNA
T3 sequence: T1 sequence with G544E

[4] = target: T4, Pol theta GC10 P2322V (Homo sapiens) (UniProt O75417); conditions: primer extension with dNTPs, template-free, 5 mM Mn2+, 42 C; purified recombinant protein; protein details: pSUMO326-derived; label: 5'-32P or ATTO488; single-stranded DNA
T4 sequence: T1 sequence with P531V, G544E

[5] = target: T5, Pol theta DW9 L2334M,E2335G (Homo sapiens) (UniProt O75417); conditions: extension with modified nucleotides, template-free, Mn2+; results mainly in figure; purified recombinant protein; protein details: pSUMO326-derived; label: 5'-32P or ATTO488; single-stranded DNA
T5 sequence: T1 sequence with L543M

Measured: activity on this sequence

TACGCATTAGCATA [ssDNAp 14-mer primer]
active: all assays above
